Test results from US20170226158A1.
Results are given in words; binding and its absence hold for the method and conditions named. Tags and fused reporters may be left off the sequences shown.

Target: CEA6
Assay: phage ELISA on coated antigen

binding: no binding
B1: DARPin 1 (template L-Myc DARPin, net charge -13) (designed binder)
chain: DLGKKLLEAARAGQDDEVRILMANGADVNAMDQYGFTPLHLAAWYGHLEIVEVLLKHGADVNAKDVHGFTPLHLAAWTGHLEIVEVLLKNGADVNARDNEGSTPLHLAALAGHLEIVEVLLKNGADVNAQDKFGKTAFDISIDNGNEDLAEILQKL
